Reference: US20070028316A1
These are yes or no findings as the source states them, for the method shown. In cells and extracts the contact can be indirect. Some entries that bind do so weakly or less than the wild type. Sequences can lack the tags named with a protein.

Protein sequences, listed by entry. Tags and fused reporters are not part of them.
UniProt O43734: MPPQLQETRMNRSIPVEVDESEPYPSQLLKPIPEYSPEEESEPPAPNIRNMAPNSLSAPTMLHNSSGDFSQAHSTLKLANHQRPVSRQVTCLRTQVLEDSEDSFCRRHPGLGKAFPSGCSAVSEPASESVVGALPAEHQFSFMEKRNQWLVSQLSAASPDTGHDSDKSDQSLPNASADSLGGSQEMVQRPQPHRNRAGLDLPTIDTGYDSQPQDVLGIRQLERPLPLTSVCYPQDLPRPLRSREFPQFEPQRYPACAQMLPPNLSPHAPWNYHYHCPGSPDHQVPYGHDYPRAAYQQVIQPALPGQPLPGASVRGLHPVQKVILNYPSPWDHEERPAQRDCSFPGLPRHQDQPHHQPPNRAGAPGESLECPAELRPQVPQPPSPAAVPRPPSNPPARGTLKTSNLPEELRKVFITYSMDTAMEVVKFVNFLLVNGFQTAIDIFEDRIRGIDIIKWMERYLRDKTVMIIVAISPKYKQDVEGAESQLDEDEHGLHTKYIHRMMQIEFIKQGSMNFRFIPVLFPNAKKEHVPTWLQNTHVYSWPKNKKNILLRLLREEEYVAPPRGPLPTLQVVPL

Experiments:
[1] = biological target: T1, FLAG-tagged human IL-17 receptor, full-length (human) (UniProt Q96F46); assay: co-immunoprecipitation in transfected 293 cells, anti-FLAG (M2) IP, western blot for Act1
T1 sequence (looked up): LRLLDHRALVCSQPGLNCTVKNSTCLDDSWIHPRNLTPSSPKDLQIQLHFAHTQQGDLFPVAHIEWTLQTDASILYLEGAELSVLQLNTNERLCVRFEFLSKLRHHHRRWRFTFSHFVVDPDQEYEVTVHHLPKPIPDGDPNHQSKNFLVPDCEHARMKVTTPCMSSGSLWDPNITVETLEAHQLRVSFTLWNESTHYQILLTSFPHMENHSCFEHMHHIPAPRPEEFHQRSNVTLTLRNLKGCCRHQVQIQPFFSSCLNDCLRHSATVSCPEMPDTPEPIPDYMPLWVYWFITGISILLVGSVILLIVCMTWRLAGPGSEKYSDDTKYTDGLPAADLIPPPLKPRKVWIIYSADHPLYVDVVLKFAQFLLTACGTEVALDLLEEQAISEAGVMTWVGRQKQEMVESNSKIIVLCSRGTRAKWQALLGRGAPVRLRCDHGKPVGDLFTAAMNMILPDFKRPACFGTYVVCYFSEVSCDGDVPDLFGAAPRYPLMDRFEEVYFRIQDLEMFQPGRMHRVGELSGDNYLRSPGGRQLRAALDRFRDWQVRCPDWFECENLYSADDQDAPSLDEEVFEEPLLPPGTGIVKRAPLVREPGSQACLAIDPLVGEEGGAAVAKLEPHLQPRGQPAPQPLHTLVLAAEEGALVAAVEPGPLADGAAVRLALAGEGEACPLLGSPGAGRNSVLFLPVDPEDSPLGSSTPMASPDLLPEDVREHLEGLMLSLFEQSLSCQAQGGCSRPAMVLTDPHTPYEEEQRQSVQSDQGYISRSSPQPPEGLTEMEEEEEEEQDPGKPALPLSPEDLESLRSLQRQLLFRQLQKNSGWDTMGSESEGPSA

[2] = biological target: T1, FLAG-tagged human IL-17 receptor, full-length (human); assay: co-immunoprecipitation in transfected 293 cells, anti-FLAG (M2) IP, western blot for Act1 (FIG. 22)

## HA-tagged Act1 (pCMV-Act1) (from UniProt O43734 1-574)
[1]
  binding: binds
[2]
  binding: binds
